Laboratory results reported in PubChem BioAssay AID662 (National Center for Advancing Translational Sciences (NCATS), 2007).
The list shows a part of the results. Shown are side measurements of this screen, not its main read-out; they come without a call. The list favours compounds with an active or inconclusive main result. The note in brackets gives the kind of curve behind each potency; many fits are weak.

assay: Cell signaling CRE-BLA (Fsk stim); conditions: CHO CRE-bla reporter (cAMP response element driving beta-lactamase), forskolin EC10, beta-lactamase ratio; measured here: 460 nm blue channel
How it was run: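 CRE-bla CHO reporter cells treated with compound titration plus EC10 NKH 477 (water-soluble forskolin), incubated 3 h at 37 °C; CCF4 loading 2 h at room temperature, 460/530 nm emission ratio read, AC50 values derived for positive or negative modulators.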

| Structure (SMILES) | AC50 |
| --- | --- |
| CN1CCN(c2ccnc(-c3ccc(N(C)C)cc3)n2)CC1 | 10 µM [rising, partial curve] |
| CN(C)c1ncc2nc(-c3ccc(Cl)cc3)c(=O)n(Cc3cccs3)c2n1 | 0.501 µM [rising, full curve] |
| O=c1c(-c2nc3ccccc3o2)c2oc3ccccc3n2c2ccccc12 | 3.16 µM [rising, partial curve] |
| CC1CCN(S(=O)(=O)c2cccc(-c3nnc(-c4cccnc4)o3)c2)CC1 | 10 µM [rising, partial curve] |
| CC(=O)OCC(=O)[C@@]1(O)CC[C@@H]2[C@H]3CCC4=CC(=O)CC[C@]4(C)[C@]3(F)[C@@H](O)C[C@@]21C | 12.6 µM [falling, single point] |
| O=C(c1oc(=O)c2ccccc2c1-c1ccccc1)N1CCOCC1 | 0.126 µM [rising, partial curve] |
| O=C(O)c1ccccc1-c1ccccc1C(=O)Nc1ccc2c(c1)Cc1cc(F)ccc1-2 | 1 µM [falling, partial curve] |
| O=C(NC1CCCCCCC1)C1CCN(S(=O)(=O)N2CCCC2)CC1 | 7.94 µM [falling, partial curve] |
| CCn1c(SCC(N)=O)nc2c(c1=O)C1(CCCC1)Cc1ccccc1-2 | 1.58 µM [rising, partial curve] |
| CN(C)c1ccc(CNn2cnnc2SCc2ccc(F)cc2)cc1 | 6.31 µM [falling, partial curve] |
| COc1ccccc1NC(=O)CSc1nc2sc(C)c(C)c2c(=O)n1Cc1ccco1 | 5.01 µM [rising, full curve] |
| Cc1nc(-c2ccccc2O)n(S(=O)(=O)N(C)C)n1 | 5.01 µM [falling, single point] |
| COc1ccc2[nH]c(=O)c(CN(C(=O)c3ccncc3)C(C)(C)C)cc2c1 | 10 µM [rising, single point] |
| Cc1ccc(C2NC(=O)c3c(sc4c3CCN(C)C4)N2)s1 (configuration not stated) | 10 µM [rising, partial curve] |
| CN(C)c1ccc(/C=N/n2ncc3ccccc32)cc1 | 10 µM [rising, partial curve] |
| O=C(NC1(C(F)(F)F)NC(=O)N(C2CCCCC2)C1=O)c1cccs1 (configuration not stated) | 10 µM [falling, partial curve] |
| COc1ccc(-n2c(=O)c(-c3ccc(Cl)cc3)nc3cnc(N4CCNCC4)nc32)cc1 | 3.16 µM [rising, full curve] |
| COc1c(C)cc(Br)cc1C(=O)NCc1cccnc1 | 0.0316 µM [rising, full curve] |
| COC(=O)[C@@]1(Cc2ccc(OC)cc2)[C@H]2c3cc(C(=O)N(C)C)n(Cc4ccc(OC)c(OC)c4)c3C[C@H]2CN1C(=O)c1ccccc1 | 6.31 µM [rising, partial curve] |
| Cc1noc(C)c1COC(=O)c1ccc(-c2nc3ccccc3s2)s1 | 0.1 µM [rising, full curve, poor fit] |
| CCCCn1c(SCC(=O)NCC2CCCO2)nc2ccc(N3CCOCC3)cc2c1=O (configuration not stated) | 7.94 µM [rising, partial curve] |

| Structure (SMILES) | AC50 |
| --- | --- |
| O=C(O)C=C1C2CC3CC(C2)CC1C3 | 1 µM [falling, partial curve, poor fit] |
| O=C(COc1ccc(Cl)cc1Cl)N1CCCCCC1 | 0.398 µM [rising, full curve] |
| COc1ccc(NC(=O)c2ccco2)cc1NC(=O)c1ccco1 | 12.6 µM [rising, single point] |
| COc1ccc(C2=Nn3c(nnc3-c3ccc(OC)cc3)SC2)cc1 | 12.6 µM [rising, partial curve] |
| CCOC(=O)c1nnsc1NC(C)=O | 0.126 µM [falling, full curve] |
| COC(=O)Nc1nnc(SCc2ccc(C)cc2)s1 | 5.01 µM [rising, partial curve] |
| COc1ccc(-c2nc3cnc(N4CCNCC4)nc3n(-c3ccc(OC)cc3)c2=O)cc1 | 2.51 µM [rising, full curve] |
| CCOc1ccc(-c2noc(-c3cccnc3)n2)cc1OC | 2 µM [rising, single point] |
| Cc1ccc(C(C)C)c(OCc2nnc3n2CCCCC3)c1 | 10 µM [rising, partial curve] |
| CN(C(=O)COC(=O)c1nc(-c2ccccc2)n(-c2ccccc2)n1)C1CCS(=O)(=O)C1 (configuration not stated) | 0.794 µM [falling, partial curve, poor fit] |
| c1ccc2c(NCCN3CCOCC3)nc(-c3ccc4c(c3)OCO4)nc2c1 | 10 µM [rising, partial curve] |
| CC1CN(C2CCCCC2)c2nc3c(c(=O)n(C)c(=O)n3C)n2C1 (configuration not stated) | 12.6 µM [rising, single point] |
| CC(C)N(C(=O)COC(=O)c1ccccc1C(=O)N1CCN(c2ccc(F)cc2)CC1)C(C)C | 1.58 µM [falling, partial curve] |
| Cc1c(C(=O)O)oc2c1ccc1ccccc12 | 1.58 µM [falling, single point] |
| Cc1cc(C)n(-c2nc(SCC(=O)Nc3nccs3)c3c4c(sc3n2)COC(C)(C)C4)n1 | 2.51 µM [rising, single point] |
| COc1ccc(-c2csc(C3=C(O)CN(Cc4ccc(S(N)(=O)=O)cc4)C3=N)n2)cc1OC | 0.0794 µM [falling, partial curve, poor fit] |
| CCOC(=O)N1CCC(Nc2ccc3nnc(-c4ccccc4)n3n2)CC1 | 10 µM [rising, partial curve] |
| COC(=O)c1ccc(-c2nn(C)c(=O)c3ccccc23)cc1 | 5.01 µM [rising, partial curve] |
| O=C(C1Cc2ccccc2CN1S(=O)(=O)c1cccs1)N1CCCCCC1 (configuration not stated) | 0.00316 µM [falling, full curve, poor fit] |
| COc1ccc(C(=O)NCC(=O)OC2CCCCC2=O)cc1 (configuration not stated) | 5.01 µM [falling, partial curve] |
| COc1ccc(-n2c(=O)c(C)nc3cnc(N4CCOCC4)nc32)cc1 | 12.6 µM [rising, partial curve] |

In another format: four of the compounds above.
Structure (SMILES)	AC50
COC(=O)c1ccc(-c2nn(C)c(=O)c3ccccc23)cc1	5.01 µM [rising, partial curve]
O=C(C1Cc2ccccc2CN1S(=O)(=O)c1cccs1)N1CCCCCC1 (configuration not stated)	0.00316 µM [falling, full curve, poor fit]
COc1ccc(C(=O)NCC(=O)OC2CCCCC2=O)cc1 (configuration not stated)	5.01 µM [falling, partial curve]
COc1ccc(-n2c(=O)c(C)nc3cnc(N4CCOCC4)nc32)cc1	12.6 µM [rising, partial curve]
